In PubChem BioAssay AID493014 (National Center for Advancing Translational Sciences (NCATS), 2011) one finds AC50 data, which are given here for 63 compounds.

Several values for one entry are separate records, joined by “and”; a condition that tells them apart may be missing. Equal values may be shown once. The list shows a part of the results. Further columns of the screen follow, without active or inactive calls. The list favours compounds with an active or inconclusive main result. Potencies come from curve fits of mixed quality, noted in brackets.

The nature of this assay: qHTS Assay to Find Inhibitors of Chronic Active B-Cell Receptor Signaling. The conditions noted are these: ABC-DLBCL IkBa-CBG/CBR reporter, luminescence ratio (green luciferase fused to IkBa over red control in TMD8 lymphoma cells), 4 h. Summed up:
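Cell line TMD8 (human ABC DLBCL), stably expressing tet-inducible CBG68-IkBa fusion and CBR; IMDM/0.5% FBS; cpd up to 46 uM; dox induction, 4 h, 37C/5% CO2; dual luminescence; green/red ratio; MG132 control.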

[1] abbreviates: measured here: CBR red luminescence, cell number.
[2] abbreviates: measured here: IkBa-CBG green luminescence.

Take `Cc1ccc(NC(c2ccccc2)c2nc3ccccc3[nH]c2=O)cc1` (stereo not drawn): the AC50 under setting [1] was 3.55 µM [falling, partial curve, poor fit].

For the compound `Clc1ccc(-c2[nH]ncc2N=Nc2ccccc2)cc1`, under setting [1], the AC50 was 12.6 µM [rising, single point].

For the compound `COc1cc(/C=N/Nc2ncc(C(F)(F)F)cc2Cl)cc(OC)c1O`, under setting [1], the AC50 is 20.6 µM [rising, partial curve, poor fit].

In the case of `COc1ccc(Br)cc1C(=O)Nc1ccc(C(=O)NCC(C)C)cc1`, the AC50 under setting [1] is 17.8 µM [rising, partial curve, poor fit].

On to `CC(=O)N1CCN(c2ccc(NC(=O)c3ccc([N+](=O)[O-])o3)cc2Cl)CC1`, for which the half-maximal activity concentration (AC50) under setting [1] is 7.94 µM [falling, partial curve, poor fit].

`O=C(O)c1ccc(/C=N/Nc2ccc(F)cc2F)cc1`: the concentration at half-maximal activity (AC50) under setting [1] was 2.82 µM [falling, partial curve].

Consider `COc1ccc(NC(=O)c2ccc(NC(=O)CSc3nccc(=O)[nH]3)cc2)cc1`, for which the AC50 under setting [1] was 5.62 µM [falling, single point].

Consider `C/C(=N\Nc1nc2ccccc2s1)c1ccc(Br)s1`, for which the AC50 under setting [1] was 5.01 µM [falling, full curve].

Regarding `CSc1ccc(CN2CCC(C(=O)NCc3ccc(C)cc3)CC2)cc1`, the AC50 under setting [1] is 0.0891 µM [rising, full curve, poor fit].

Turning to `CN(C)CCCN(C(=O)c1ccco1)c1nc(-c2ccc(Cl)cc2)cs1`, under setting [1], the AC50 was 17.8 µM [falling, partial curve, poor fit].

As to `O=C(N/N=C/c1c(O)n(-c2ccc(Cl)cn2)c(=O)c2ccccc12)C1CC1`, the AC50 under setting [1] is 18.4 µM [falling, single point].

As for `COc1ccccc1NC(=O)/C=C\C(=O)O`, the AC50 under setting [1] was 22.4 µM [falling, single point].

For `O=[N+]([O-])c1ccc(Sc2nnnn2-c2ccccc2)c(Cl)c1`, the AC50 under setting [2] is 29.1 µM [falling, single point].

For the compound `COc1cc(CNc2nc(C)c([N+](=O)[O-])c(C)c2C#N)cc(OC)c1`, the AC50 under setting [1] was 14.6 µM [rising, partial curve, poor fit].

Turning to `CCCN(C(=O)c1cccs1)c1c(N)n(Cc2ccccc2)c(=O)[nH]c1=O`, the AC50 under setting [1] is 7.31 µM [rising, partial curve, poor fit].

With `CC(=O)c1c(OC(=O)c2ccco2)c2ccccc2n1C`, the AC50 under setting [1] is 6.51 µM [falling, single point].

For the compound `CCc1nc(SCC(=O)N2CCCC2)c2ccccc2n1`, under setting [2], the AC50 was 4.11 µM [rising, partial curve, poor fit].

In the case of `CCCOc1ccc(N2C(=O)CC(N3CCN(c4ccc([N+](=O)[O-])cc4)CC3)C2=O)cc1` (stereo not drawn), the AC50 under setting [1] is 7.08 µM [falling, full curve, poor fit].

With `COc1ccc(NC(=O)CSc2nnc3ccc(-c4ccncc4)nn23)cc1OC`, the AC50 under setting [1] was 35.5 µM [falling, single point].

Turning to `NC(=O)c1ccsc1NC(=O)COC(=O)c1c(F)cccc1Cl`, the AC50 under setting [1] is 2.06 µM [falling, full curve, poor fit].

For `CN(C)c1ccc(/C=C2\Oc3ccc(C#Cc4cccc(N)c4)cc3C2=O)cc1`, under setting [1], the AC50 is 11.6 µM [rising, single point].

On to `CN(C)C(CNC(=O)c1cccc(C#N)c1)c1ccco1` (stereo not drawn), for which the AC50 under setting [1] is 10 µM [rising, single point].

As to `CC(=O)Nc1ccc(N/C=C/C(=O)c2ccc(C)o2)cc1`, the AC50 under setting [1] was 35.5 µM [rising, single point].

Take `O=C(c1ccco1)N1CCc2[nH]nc(-c3ccccc3)c2C1`: the half-maximal activity concentration (AC50) under setting [1] was 15.8 µM [falling, single point].

As for `Cn1c(=O)cc(NCCc2ccccc2)[nH]c1=O`, under setting [1], the AC50 was 0.92 µM [falling, full curve, poor fit].

On to `CCCCOC(=O)c1ccc(NC(=O)COC(=O)CSc2nc(C)cc(C)n2)cc1`, for which the AC50 under setting [1] was 16.4 µM [rising, partial curve].

As to `CC(C)(C)c1ccc(OCCC(=O)Nc2cccc(S(=O)(=O)N3CCCCC3)c2)cc1`, the AC50 under setting [1] was 8.2 µM [falling, partial curve, poor fit].

Regarding `CCOc1ccccc1C(=O)OCC(=O)Nc1nnc(-c2ccccc2)o1`, the AC50 under setting [1] is 13 µM [falling, single point].

As to `COCc1ccc(-c2c(-c3cc(OC)cc(OC)c3)oc(=O)c3cc(OC)c(OC)cc23)cc1`, under setting [1], the half-maximal activity concentration (AC50) is 0.731 µM [rising, full curve, poor fit].

In the case of `O=C1S/C(=C\c2ccc(O)c([N+](=O)[O-])c2)C(=O)N1Cc1cccc([N+](=O)[O-])c1`, the AC50 under setting [1] was 35.5 µM [falling, single point].

In the case of `Cc1c(-c2cccc(Cl)c2)nc2ccccc2c1C(=O)OCC(=O)N(C)C1CCS(=O)(=O)C1` (stereo not drawn), under setting [2], the AC50 was 10 µM [rising, partial curve, poor fit].

As for `Cc1cccc(NC(=O)c2ccc3[nH]c(=O)c(=O)[nH]c3c2)n1`, the AC50 under setting [1] was 6.31 µM [falling, partial curve, poor fit].

Turning to `Cc1ccc([C@@H]2CC=C(C(=O)O)[C@H](c3cccc(Cl)c3)N2S(=O)(=O)c2ccc(C)cc2)cc1`, the AC50 under setting [2] is 14.6 µM [rising, partial curve, poor fit].

As to `Cc1ccc2nc(SCC(=O)Nc3ccc(F)c([N+](=O)[O-])c3)[nH]c2c1`, the half-maximal activity concentration (AC50) under setting [1] was 29.1 µM [falling, single point].

Regarding `CCO[C@@H]1OC(C(N)=O)=C[C@H](C2CCCCC2)[C@H]1CCCO`, the AC50 under setting [1] was 3.98 µM [rising, single point].

On to `N/C(=N\OC(=O)c1cccs1)c1cccc(Br)c1`, for which the AC50 under setting [1] was 5.62 µM [rising, partial curve].

As to `O=C(Nc1ccc2c(c1)OCCO2)c1cnc2n(c1=O)CCS2`, the AC50 under setting [1] was 4.61 µM [falling, full curve].

For the compound `Cn1c(=S)[nH]c(=O)c2ncc(=O)[nH]c21`, under setting [1], the AC50 is 31.6 µM [falling, partial curve, poor fit].

For `S=C(Nc1ccc(Cl)cc1Cl)NC1CCCCC1`, under setting [1], the AC50 is 35.5 µM [falling, single point].

Consider `O=C(CC(C(=O)O)c1cccc(Cl)c1)c1ccccc1` (stereo not drawn), for which the concentration at half-maximal activity (AC50) under setting [1] was 6.31 µM [rising, single point].

For `CN1CCN(CCCN2c3ccccc3Sc3ccc(Cl)cc32)CC1`, the AC50 under setting [1] is 35.5 µM [falling, single point] and 10.3 µM [falling, partial curve, poor fit].

Take `CCOc1ccc(C2C(C#N)=C(N)N3C(=C2C#N)Sc2ccccc23)cc1` (stereo not drawn): the AC50 under setting [1] was 35.5 µM [rising, single point].

For `COc1ccc(OCc2cc(/C=N\NC(=O)c3ccccc3)ccc2OC)cc1`, the AC50 under setting [1] is 12.6 µM [falling, partial curve, poor fit].

As for `O=C(COC(=O)c1cc(Cl)ccc1[N+](=O)[O-])Nc1cccc2ccccc12`, under setting [1], the AC50 is 18.4 µM [falling, single point].

As to `O=C(O)/C=C/c1nc(-c2ccccc2)n2ccccc12`, the half-maximal activity concentration (AC50) under setting [1] was 13 µM [falling, partial curve, poor fit].

On to `CCCNC(=S)N1CCN(c2nc(C)nc3sc4c(c23)CCCC4)CC1`, for which the AC50 under setting [1] is 11.2 µM [falling, single point].

Take `CCOC(=O)CN1C(=O)SC(CC(=O)Nc2nccs2)C1=O` (stereo not drawn): the AC50 under setting [1] was 14.6 µM [falling, single point].

Regarding `COc1ccccc1CNC(=O)COC(=O)c1cccc(S(=O)(=O)N2CCOCC2)c1`, the AC50 under setting [1] is 20.6 µM [rising, partial curve, poor fit].

As to `C=CC[N+]1(CC(=O)NCc2ccc(NC(C)=O)cc2)CCOCC1`, under setting [1], the AC50 is 3.16 µM [falling, partial curve, poor fit].

For `N#Cc1cccc(C#N)c1NCC1CCCO1` (stereo not drawn), the AC50 under setting [1] is 22.4 µM [rising, single point].

Turning to `CCOc1ccc(OCC(O)CNC2CCN(Cc3ccccc3)CC2)cc1` (stereo not drawn), the concentration at half-maximal activity (AC50) under setting [1] is 20.6 µM [falling, single point].

On to `N=c1c[n+](N2CCOCC2)[n-]o1`, for which, under setting [1], the AC50 is 8.91 µM [falling, partial curve, poor fit].

For the compound `Cc1ccc(O)c(Nc2ncnc3ccccc23)c1`, the AC50 under setting [1] is 1.12 µM [rising, full curve, poor fit].

As to `COC(=O)C1=C(C)N(c2ccc(F)cc2)/C(=C/c2ccc(O)cc2)C1=O`, the AC50 under setting [1] was 12.6 µM [falling, partial curve, poor fit].

Consider `NS(=O)(=O)c1ccc(NC(=S)Nc2ccc(Br)c(Cl)c2)cc1`, for which, under setting [1], the AC50 is 8.91 µM [rising, partial curve, poor fit].

As to `CC1(C)SC(=S)N(Cc2ccc3c(c2)OCO3)C1N(O)C(=O)NC1CCCCC1` (stereo not drawn), under setting [1], the concentration at half-maximal activity (AC50) was 8.91 µM [falling, partial curve].

With `O=C(N/N=C/c1ccc(F)cc1)c1cccc(NC(=O)c2ccc(F)cc2)c1`, the concentration at half-maximal activity (AC50) under setting [1] is 17.8 µM [falling, partial curve, poor fit].

As for `Cc1ccc(S(=O)(=O)N2[C@@H](c3ccc(C(C)(C)C)cc3)C(C(=O)O)=CC[C@H]2c2cccs2)cc1`, under setting [1], the AC50 is 3.26 µM [rising, partial curve, poor fit].

Regarding `O=C(NCC(c1ccc(F)cc1)N1CCOCC1)c1cc(F)c(F)c(F)c1F` (stereo not drawn), the AC50 under setting [1] is 12.6 µM [falling, single point].

As to `CCCc1nnc(SCC(=O)N2CCCCC2C)n1CCOC` (stereo not drawn), the AC50 under setting [1] is 11.2 µM [rising, single point].

Take `Cc1ccc(NS(=O)(=O)c2ccc3c(c2)oc(=O)n3C)cc1C`: the AC50 under setting [1] is 17.8 µM [falling, single point].

As for `Cc1ccc(-c2cc(C(=O)NCc3ccc4c(c3)OCO4)no2)cc1`, the AC50 under setting [1] is 0.0326 µM [rising, full curve, poor fit].

With `Cc1cccc2sc(NC(=O)C3=NN(c4ccccc4)C(=O)CC3)nc12`, the AC50 under setting [1] was 2.06 µM [falling, partial curve].
